Laboratory results as given in PMC10728194.
Results are given in words; binding and its absence hold for the method and conditions named. In cells and extracts the contact can be indirect. Some entries that bind do so weakly or less than the wild type. Sequences can lack the tags named with a protein.

By UniProt entry, the sequences of proteins in these tests, tags left out.
UniProt Q8C078: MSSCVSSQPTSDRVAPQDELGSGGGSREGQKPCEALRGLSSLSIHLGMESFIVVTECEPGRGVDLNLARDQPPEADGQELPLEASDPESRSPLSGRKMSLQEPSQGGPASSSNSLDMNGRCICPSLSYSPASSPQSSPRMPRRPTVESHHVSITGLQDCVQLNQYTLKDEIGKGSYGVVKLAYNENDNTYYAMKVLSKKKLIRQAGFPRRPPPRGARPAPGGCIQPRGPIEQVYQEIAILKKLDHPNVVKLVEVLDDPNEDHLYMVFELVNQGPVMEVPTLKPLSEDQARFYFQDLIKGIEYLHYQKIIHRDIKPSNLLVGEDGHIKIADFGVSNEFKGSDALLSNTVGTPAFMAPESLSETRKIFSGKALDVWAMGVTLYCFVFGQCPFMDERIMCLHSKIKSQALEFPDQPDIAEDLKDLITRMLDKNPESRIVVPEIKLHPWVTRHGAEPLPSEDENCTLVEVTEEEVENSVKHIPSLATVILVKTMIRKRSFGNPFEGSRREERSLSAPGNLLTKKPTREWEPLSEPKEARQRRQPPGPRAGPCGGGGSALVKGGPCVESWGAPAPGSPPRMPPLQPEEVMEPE

T1: Flag-tagged Cdo1 (cysteine dioxygenase type 1), wild type (mouse) (UniProt P60334)
T1 sequence: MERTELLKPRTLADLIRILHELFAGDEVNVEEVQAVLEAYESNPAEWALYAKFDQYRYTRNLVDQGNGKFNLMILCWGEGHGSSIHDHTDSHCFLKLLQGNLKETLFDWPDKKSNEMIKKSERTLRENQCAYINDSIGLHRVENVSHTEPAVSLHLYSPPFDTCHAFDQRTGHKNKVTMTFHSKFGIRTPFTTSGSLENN


Tests used:
[1] = target: Camkk2 (mouse (endogenous in primary hepatocytes)) (UniProt Q8C078); test: co-IP; lysates of primary hepatocytes immunoprecipitated with antibody against Camkk2, then western blotting; also after infection with AD-Cdo1^WT or AD-Cdo1^Y157F (more AMPKα with Camkk2) and after ablation of Cdo1 by AD-Cre (less AMPKα with Camkk2)
[2] = target: T1, Flag-tagged Cdo1 (cysteine dioxygenase type 1), wild type (mouse); test: co-IP; primary hepatocytes infected with AD-Flag-Cdo1; immunoprecipitation from cell lysates with anti-Flag beads, then western blotting

| Binder | binding [1] | binding [2] |
| --- | --- | --- |
| Cdo1 (cysteine dioxygenase type 1), endogenous (enzyme, UniProt P60334 1-200) MERTELLKPRTLADLIRILHELFAGDEVNVEEVQAVLEAYESNPAEWALYAKFDQYRYTRNLVDQGNGKFNLMILCWGEGHGSSIHDHTDSHCFLKLLQGNLKETLFDWPDKKSNEMIKKSERTLRENQCAYINDSIGLHRVENVSHTEPAVSLHLYSPPFDTCHAFDQRTGHKNKVTMTFHSKFGIRTPFTTSGSLENN | binds | – |
| Flag-tagged Cdo1 (cysteine dioxygenase type 1), wild type (enzyme, UniProt P60334 1-200) MERTELLKPRTLADLIRILHELFAGDEVNVEEVQAVLEAYESNPAEWALYAKFDQYRYTRNLVDQGNGKFNLMILCWGEGHGSSIHDHTDSHCFLKLLQGNLKETLFDWPDKKSNEMIKKSERTLRENQCAYINDSIGLHRVENVSHTEPAVSLHLYSPPFDTCHAFDQRTGHKNKVTMTFHSKFGIRTPFTTSGSLENN | binds | – |
| LKB1 (enzyme, UniProt Q9WTK7 1-436) MDVADPEPLGLFSEGELMSVGMDTFIHRIDSTEVIYQPRRKRAKLIGKYLMGDLLGEGSYGKVKEVLDSETLCRRAVKILKKKKLRRIPNGEANVKKEIQLLRRLRHRNVIQLVDVLYNEEKQKMYMVMEYCVCGMQEMLDSVPEKRFPVCQAHGYFRQLIDGLEYLHSQGIVHKDIKPGNLLLTTNGTLKISDLGVAEALHPFAVDDTCRTSQGSPAFQPPEIANGLDTFSGFKVDIWSAGVTLYNITTGLYPFEGDNIYKLFENIGRGDFTIPCDCGPPLSDLLRGMLEYEPAKRFSIRQIRQHSWFRKKHPLAEALVPIPPSPDTKDRWRSMTVVPYLEDLHGRAEEEEEEDLFDIEDGIIYTQDFTVPGQVLEEEVGQNGQSHSLPKAVCVNGTEPQLSSKVKPEGRPGTANPARKVCSSNKIRRLSACKQQ | – | no binding |
